Values from PubChem BioAssay AID652259 (Drosophila RNAi Screening Center, 2013)
Purpose: 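Knock-downs that push a Wingless-driven reporter up or down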 (primary screen). Cell system: Drosophila clone 8 imaginal disc epithelial cells. Reagents: long dsRNA against Drosophila genes. Conditions: pathway stimulated by co-transfected Wingless expression plasmid. Read-out: 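Firefly luciferase from a tcf-site Wingless reporter, measured alongside co-transfected Renilla luciferase that tracks transfection; pathway stimulated by a Wingless plasmid; the firefly-to-Renilla ratio is not deposited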. Reading the numbers: firefly reporter light: higher = more Wg reporter light, before normalisation; Renilla control light: higher = more transfected or surviving cells. Call rule: 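a knock-down is a candidate when at least two out of four statistical tests show it departing from its plate mean; one test alone signals a weak candidate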. Meaning of the calls: active = candidate regulator (raises or lowers reporter); inactive = not a candidate.
In all, the deposit lists about 22,000 reagents; shown is an unselected part of those that have a named target and a result. Of all reagents, 233 (1.1%) were called active. 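Light values are raw, unnormalised plate reads; the ratio scores behind the reporter calls were not deposited.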 Unmarked entries are inactive. The numbers tell different reagents against one gene apart. Names joined by + are all predicted targets of the reagent. Not stated in the record: the amount of reagent, the time to read-out, the dose of the treatment.

no.	predicted target	reagent no.	reporter change call, replicate 1	firefly reporter light, replicate 1	firefly reporter light, replicate 2	Renilla control light, replicate 1	Renilla control light, replicate 2
1	CG9393 (GeneID 41152)	1		4328		1837	
2	CG8945 (GeneID 32693)	1		18216		8169	
3	CG8945 (GeneID 32693)	2		23545		7990	
4	CG11470 (GeneID 43480)	1		7126		2900	
5	Ttc30 (GeneID 34702)	1		3857	9137	1888	3752
6	yellow-e (GeneID 41653)	1		5032		1985	
7	yellow-e (GeneID 41653)	2		13779		2464	
8	Fbp2 (GeneID 34259)	1		6612		2672	
9	Kaz1-ORFB (GeneID 3772691)	1	Wg reporter activity raised	4592		2144	
10	salt (GeneID 43742)	1		2357	5553	1290	2295
11	Polr3F (GeneID 42619)	1		37140		5794	
12	CG30178 (GeneID 246501)	1		3.82e5	3.55e5	1.56e5	1.41e5
13	kibra (GeneID 41783)	1		9073		1761	
14	kibra (GeneID 41783)	2		10497		509	
15	CG3611 (GeneID 37972)	1		2459	5588	342	2096
16	CG2003 (GeneID 43761)	1		18573		11041	
17	CG9897 + asRNA:CR42742	1		2433	5185	867	1941
18	RpL35 (GeneID 31483)	1		23445		9412	
19	ProtB (GeneID 34867)	1		2189	6016	625	2669
20	CG15211 (GeneID 32006)	1		21946		11248	
21	CG14400 (GeneID 35354)	1		2496	8130	838	2960
22	AP-1sigma (GeneID 42835)	1		3766	9907	1779	3408
23	Tg (GeneID 34093)	1		2267	6662	624	3339
24	kon (GeneID 35104)	1		8976		3004	
25	lectin-29Ca (GeneID 53547)	1		2085	3024	762	2215
26	sqz (GeneID 42300)	1		32221		4192	
27	Gr32a (GeneID 34545)	1		2539	9860	1162	4986
28	CG3942 (GeneID 41489)	1		14244		3840	
29	Sec61gamma (GeneID 32968)	1		18889		9861	

Reprinted from above for reference:
no.	predicted target	reagent no.	reporter change call, replicate 1	firefly reporter light, replicate 1	firefly reporter light, replicate 2	Renilla control light, replicate 1	Renilla control light, replicate 2
13	kibra (GeneID 41783)	1		9073		1761	
14	kibra (GeneID 41783)	2		10497		509	
15	CG3611 (GeneID 37972)	1		2459	5588	342	2096
